Measured values as given in the supplement of paper PMC12819154, “High-throughput peptide-centric local stability assay extends protein–ligand identification to membrane proteins, tissues and bacteria” (Nature Structural & Molecular Biology, 2025).
Some of the results follow. Small differences around the control level are noise.

Protein sequences, listed by entry. Tags and fused reporters are not part of them. Lines headed by an entry give the natural chain unless they say otherwise; changes in a name come on top.
UniProt Q5VZF2: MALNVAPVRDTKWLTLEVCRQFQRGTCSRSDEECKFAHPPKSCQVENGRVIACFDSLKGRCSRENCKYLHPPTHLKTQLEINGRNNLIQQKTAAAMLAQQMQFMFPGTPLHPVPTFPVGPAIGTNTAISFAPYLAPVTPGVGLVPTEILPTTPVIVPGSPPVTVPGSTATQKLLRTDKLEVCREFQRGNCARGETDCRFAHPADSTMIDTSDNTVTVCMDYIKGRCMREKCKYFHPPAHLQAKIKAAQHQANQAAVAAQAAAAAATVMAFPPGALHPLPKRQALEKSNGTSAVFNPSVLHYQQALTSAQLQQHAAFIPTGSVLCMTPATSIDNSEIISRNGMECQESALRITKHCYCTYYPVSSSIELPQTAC
UniProt Q6P6B7: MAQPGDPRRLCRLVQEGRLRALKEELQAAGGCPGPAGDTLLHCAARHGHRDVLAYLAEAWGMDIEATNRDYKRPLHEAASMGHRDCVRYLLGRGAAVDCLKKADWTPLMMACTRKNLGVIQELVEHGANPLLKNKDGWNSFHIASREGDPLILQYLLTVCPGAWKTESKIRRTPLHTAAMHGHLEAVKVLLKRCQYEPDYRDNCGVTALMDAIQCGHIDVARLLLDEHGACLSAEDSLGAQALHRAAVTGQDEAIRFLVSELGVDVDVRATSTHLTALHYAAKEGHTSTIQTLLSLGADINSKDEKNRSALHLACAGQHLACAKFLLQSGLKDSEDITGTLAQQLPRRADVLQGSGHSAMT
UniProt Q6NZI2: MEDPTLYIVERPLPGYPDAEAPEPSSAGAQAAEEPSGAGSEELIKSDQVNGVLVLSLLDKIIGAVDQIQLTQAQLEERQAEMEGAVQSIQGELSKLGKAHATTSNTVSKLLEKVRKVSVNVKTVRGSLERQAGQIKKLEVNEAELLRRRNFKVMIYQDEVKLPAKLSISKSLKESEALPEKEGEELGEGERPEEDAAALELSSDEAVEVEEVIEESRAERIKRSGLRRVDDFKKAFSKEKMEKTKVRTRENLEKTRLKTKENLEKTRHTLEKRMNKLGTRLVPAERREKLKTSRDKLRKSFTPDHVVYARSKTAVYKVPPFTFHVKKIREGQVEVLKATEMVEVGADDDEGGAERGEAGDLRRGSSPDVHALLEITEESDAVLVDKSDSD
UniProt Q6P1N9: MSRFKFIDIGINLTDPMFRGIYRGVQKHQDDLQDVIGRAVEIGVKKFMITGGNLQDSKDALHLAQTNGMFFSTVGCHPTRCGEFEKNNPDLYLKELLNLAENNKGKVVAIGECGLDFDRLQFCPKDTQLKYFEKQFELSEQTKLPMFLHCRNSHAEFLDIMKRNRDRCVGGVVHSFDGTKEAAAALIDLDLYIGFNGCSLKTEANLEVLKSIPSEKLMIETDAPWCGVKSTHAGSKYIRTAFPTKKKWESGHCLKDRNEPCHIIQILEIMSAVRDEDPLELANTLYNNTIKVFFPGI
UniProt Q68EM7: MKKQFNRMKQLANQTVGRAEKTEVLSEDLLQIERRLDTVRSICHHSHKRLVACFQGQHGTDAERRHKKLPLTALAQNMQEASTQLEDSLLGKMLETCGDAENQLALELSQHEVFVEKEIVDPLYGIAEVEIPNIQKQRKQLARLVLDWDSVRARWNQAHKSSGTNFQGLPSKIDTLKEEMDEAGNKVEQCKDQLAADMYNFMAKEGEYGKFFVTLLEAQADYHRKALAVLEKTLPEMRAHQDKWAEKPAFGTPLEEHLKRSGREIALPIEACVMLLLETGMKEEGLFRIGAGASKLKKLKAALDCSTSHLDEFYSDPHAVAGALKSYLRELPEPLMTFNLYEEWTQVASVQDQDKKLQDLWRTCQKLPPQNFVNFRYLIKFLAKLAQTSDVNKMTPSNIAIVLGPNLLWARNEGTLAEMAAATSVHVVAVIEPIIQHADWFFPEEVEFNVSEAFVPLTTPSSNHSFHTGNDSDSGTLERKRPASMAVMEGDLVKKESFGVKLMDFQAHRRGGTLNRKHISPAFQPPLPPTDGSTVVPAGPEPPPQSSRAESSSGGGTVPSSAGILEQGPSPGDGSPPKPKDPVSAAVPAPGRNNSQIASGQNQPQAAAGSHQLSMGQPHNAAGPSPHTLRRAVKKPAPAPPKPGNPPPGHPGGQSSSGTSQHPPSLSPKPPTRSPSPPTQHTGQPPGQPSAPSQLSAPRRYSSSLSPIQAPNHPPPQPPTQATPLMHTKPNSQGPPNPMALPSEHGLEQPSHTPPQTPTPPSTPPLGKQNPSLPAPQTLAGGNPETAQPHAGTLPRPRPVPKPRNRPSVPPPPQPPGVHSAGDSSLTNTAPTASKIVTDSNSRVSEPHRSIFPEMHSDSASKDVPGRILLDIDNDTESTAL
UniProt Q69YI7: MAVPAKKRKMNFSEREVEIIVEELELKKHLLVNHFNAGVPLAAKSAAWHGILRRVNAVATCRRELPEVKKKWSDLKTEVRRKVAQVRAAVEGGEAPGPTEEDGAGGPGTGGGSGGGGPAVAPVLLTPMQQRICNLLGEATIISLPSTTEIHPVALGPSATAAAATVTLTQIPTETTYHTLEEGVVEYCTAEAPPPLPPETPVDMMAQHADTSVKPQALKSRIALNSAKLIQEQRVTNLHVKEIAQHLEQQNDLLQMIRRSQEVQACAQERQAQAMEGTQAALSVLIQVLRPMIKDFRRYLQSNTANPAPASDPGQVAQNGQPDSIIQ
UniProt Q6NZY4: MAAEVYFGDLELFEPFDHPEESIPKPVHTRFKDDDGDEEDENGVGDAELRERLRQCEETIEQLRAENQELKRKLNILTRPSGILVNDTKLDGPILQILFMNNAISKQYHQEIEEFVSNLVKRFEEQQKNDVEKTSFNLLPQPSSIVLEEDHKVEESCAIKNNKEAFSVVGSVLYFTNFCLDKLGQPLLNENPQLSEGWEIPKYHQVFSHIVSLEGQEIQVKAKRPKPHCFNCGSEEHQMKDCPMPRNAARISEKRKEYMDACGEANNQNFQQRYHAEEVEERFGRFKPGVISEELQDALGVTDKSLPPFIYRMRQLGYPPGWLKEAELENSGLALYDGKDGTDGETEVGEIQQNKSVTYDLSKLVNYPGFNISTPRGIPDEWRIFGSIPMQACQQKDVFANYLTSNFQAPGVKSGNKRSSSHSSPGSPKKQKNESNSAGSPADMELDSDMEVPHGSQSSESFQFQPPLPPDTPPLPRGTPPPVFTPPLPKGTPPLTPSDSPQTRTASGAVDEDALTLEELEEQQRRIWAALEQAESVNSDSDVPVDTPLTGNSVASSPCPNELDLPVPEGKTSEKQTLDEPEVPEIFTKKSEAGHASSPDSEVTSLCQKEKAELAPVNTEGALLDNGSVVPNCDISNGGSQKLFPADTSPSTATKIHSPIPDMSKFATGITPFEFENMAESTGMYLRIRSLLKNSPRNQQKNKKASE
UniProt Q6NSJ2: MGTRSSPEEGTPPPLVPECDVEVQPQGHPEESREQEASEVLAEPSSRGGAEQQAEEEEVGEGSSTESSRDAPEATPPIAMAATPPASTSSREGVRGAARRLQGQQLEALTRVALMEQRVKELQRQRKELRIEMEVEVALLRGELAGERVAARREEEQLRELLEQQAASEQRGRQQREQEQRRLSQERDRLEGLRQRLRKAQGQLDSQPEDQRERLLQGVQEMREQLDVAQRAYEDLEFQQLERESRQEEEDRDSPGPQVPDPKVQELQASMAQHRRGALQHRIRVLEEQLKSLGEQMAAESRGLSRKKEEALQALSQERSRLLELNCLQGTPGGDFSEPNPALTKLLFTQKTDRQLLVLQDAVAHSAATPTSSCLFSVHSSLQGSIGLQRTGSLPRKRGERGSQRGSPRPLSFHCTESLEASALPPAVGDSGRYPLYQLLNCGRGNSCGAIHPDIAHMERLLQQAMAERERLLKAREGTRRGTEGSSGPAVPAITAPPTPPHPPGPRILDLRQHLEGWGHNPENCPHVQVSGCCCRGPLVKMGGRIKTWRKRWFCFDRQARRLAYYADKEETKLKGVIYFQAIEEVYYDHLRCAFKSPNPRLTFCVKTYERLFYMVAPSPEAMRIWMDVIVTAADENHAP
UniProt Q6P597: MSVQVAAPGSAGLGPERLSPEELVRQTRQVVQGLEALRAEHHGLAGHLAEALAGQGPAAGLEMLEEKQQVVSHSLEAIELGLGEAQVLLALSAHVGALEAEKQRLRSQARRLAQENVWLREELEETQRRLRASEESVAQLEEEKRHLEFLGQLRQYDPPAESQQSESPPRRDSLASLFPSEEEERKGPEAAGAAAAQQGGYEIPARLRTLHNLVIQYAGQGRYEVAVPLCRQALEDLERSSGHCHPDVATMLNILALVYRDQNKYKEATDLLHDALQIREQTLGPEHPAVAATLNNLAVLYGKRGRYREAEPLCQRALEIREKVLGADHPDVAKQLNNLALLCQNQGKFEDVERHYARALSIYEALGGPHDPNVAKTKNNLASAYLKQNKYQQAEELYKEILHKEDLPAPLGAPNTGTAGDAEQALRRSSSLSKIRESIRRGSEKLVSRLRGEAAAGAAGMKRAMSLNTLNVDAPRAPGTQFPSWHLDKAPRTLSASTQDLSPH
UniProt Q6NSZ9: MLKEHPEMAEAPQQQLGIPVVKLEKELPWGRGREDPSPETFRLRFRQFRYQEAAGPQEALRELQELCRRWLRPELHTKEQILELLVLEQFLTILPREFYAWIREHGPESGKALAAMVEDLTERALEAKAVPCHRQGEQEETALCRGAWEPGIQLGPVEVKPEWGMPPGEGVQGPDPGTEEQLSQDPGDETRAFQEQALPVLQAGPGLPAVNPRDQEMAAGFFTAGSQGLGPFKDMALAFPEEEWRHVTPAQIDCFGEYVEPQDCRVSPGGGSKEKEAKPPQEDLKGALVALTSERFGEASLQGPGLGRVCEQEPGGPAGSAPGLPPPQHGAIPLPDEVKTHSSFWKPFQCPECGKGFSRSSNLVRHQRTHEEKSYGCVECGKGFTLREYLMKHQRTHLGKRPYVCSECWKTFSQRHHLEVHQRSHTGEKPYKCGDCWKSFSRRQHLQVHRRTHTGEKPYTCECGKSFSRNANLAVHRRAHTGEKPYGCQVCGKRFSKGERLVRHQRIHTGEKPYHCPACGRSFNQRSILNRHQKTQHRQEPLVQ
UniProt Q6P087: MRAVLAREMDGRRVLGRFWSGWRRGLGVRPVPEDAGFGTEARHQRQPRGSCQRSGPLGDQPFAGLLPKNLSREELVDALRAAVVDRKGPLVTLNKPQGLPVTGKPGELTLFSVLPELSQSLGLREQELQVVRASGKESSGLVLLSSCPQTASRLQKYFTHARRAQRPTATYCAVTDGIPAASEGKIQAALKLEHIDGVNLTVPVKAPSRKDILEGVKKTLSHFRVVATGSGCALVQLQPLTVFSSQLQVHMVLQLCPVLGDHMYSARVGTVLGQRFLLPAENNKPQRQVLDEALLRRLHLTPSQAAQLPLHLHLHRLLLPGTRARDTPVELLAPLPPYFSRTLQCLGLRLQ
UniProt Q66GS9: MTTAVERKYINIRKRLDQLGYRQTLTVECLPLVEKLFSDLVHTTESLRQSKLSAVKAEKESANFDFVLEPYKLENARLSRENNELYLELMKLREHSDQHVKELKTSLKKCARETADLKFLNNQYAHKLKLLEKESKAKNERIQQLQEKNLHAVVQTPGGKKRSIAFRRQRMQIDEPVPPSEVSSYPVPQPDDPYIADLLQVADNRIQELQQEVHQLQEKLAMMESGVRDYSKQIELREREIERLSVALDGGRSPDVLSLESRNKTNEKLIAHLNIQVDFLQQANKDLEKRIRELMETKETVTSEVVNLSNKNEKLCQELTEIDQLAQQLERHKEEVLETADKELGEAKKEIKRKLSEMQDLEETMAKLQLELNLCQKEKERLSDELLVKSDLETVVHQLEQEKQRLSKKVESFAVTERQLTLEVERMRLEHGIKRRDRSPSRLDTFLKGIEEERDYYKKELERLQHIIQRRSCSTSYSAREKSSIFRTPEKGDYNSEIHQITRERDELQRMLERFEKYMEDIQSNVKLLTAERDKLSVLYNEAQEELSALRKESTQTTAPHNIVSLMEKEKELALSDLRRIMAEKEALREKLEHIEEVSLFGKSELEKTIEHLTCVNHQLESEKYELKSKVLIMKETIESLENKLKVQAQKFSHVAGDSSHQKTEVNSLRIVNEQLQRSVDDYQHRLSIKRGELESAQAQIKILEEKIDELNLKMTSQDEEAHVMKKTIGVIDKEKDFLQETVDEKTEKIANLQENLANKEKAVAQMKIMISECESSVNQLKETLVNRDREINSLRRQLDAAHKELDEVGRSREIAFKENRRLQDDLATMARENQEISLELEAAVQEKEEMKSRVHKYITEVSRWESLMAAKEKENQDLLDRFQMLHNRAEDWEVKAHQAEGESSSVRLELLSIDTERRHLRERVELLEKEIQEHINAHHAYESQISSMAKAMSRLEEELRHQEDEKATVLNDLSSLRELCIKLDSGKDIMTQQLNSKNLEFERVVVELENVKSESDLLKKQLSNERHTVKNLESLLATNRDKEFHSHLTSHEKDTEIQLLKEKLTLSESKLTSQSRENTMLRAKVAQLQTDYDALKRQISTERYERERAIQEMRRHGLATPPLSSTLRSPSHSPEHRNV

compound: CN[C@@H]1C[C@H]2O[C@@](C)([C@@H]1OC)n1c3ccccc3c3c4c(c5c6ccccc6n2c5c31)C(=O)NC4 [staurosporine]; test: log2 fold change of tryptic peptide abundance, ligand vs vehicle (limited proteolysis) (log2 ratio); higher = more trypsin-susceptible (destabilized); settings: ligand concentration: 20 uM; sample: K562 cleared lysate; digestion: 4 min, 22 C (HT-PELSA RT4min, Orbitrap Astral)

**Q.** For “UniProt Q6RVD6 (peptide sequence: GGPGGLK, peptide start residue: 51)”, which log2 fold change is on record?
**A.** 0.0105

**Q.** How did the log2 fold change turn out when “MBNL2 (peptide sequence: ALNVAPVRDTK, peptide start residue: 2) (UniProt Q5VZF2)” was run?
**A.** -0.197

**Q.** Which log2 fold change does the source give for “RPL22L1 (peptide sequence: TGNLGNVVHIER, peptide start residue: 48) (UniProt Q6P5R6)” here?
**A.** 0.142

**Q.** For “JMJD6 (peptide sequence: WCLFPTSTPR, peptide start residue: 206) (UniProt Q6NYC1)”, which log2 fold change is on record?
**A.** 0.27

**Q.** Which log2 fold change does the source give for “ANKRD16 (peptide sequence: KADWTPLMMACTR, peptide start residue: 102) (UniProt Q6P6B7)” here?
**A.** 0.362

**Q.** With “UniProt Q6NZI2 (peptide sequence: EGQVEVLK, peptide start residue: 330)” as the target, how does the log2 fold change read?
**A.** -0.133

**Q.** Which log2 fold change does the source give for “ZFAND6 (peptide sequence: VGLTGFECR, peptide start residue: 156) (UniProt Q6FIF0)” here?
**A.** -0.414

**Q.** Which log2 fold change does the source give for “REEP3 (peptide sequence: GYETMVNFGR, peptide start residue: 114) (UniProt Q6NUK4)” here?
**A.** -0.216

**Q.** For “TATDN1 (peptide sequence: KKWESGHCLK, peptide start residue: 246) (UniProt Q6P1N9)”, which log2 fold change is on record?
**A.** 0.476

**Q.** “ARHGAP17 (peptide sequence: WAEKPAFGTPLEEHLKR, peptide start residue: 244) (UniProt Q68EM7)” was tested. Which log2 fold change did it give?
**A.** 0.452

**Q.** “ZNF852 (peptide sequence: LESDFLEIIDEDKKK, peptide start residue: 110) (UniProt Q6ZMS4)” was tested. Which log2 fold change did it give?
**A.** -1.08

**Q.** How did the log2 fold change turn out when “C22orf39 (peptide sequence: HFLHHYYVHGERPACEQWQR, peptide start residue: 65) (UniProt Q6P5X5)” was run?
**A.** -0.368

**Q.** Which log2 fold change does the source give for “NAIF1 (peptide sequence: SQEVQACAQER, peptide start residue: 260) (UniProt Q69YI7)” here?
**A.** 0.971

**Q.** For “UniProt Q6P9F0 (peptide sequence: SALREDETESSSNK, peptide start residue: 585)”, which log2 fold change is on record?
**A.** -1.02

**Q.** For “DNMBP (peptide sequence: LLDFYNCTER, peptide start residue: 1128) (UniProt Q6XZF7)”, which log2 fold change is on record?
**A.** -0.591

**Q.** How did the log2 fold change turn out when “TXNDC11 (peptide sequence: ILVATMERK, peptide start residue: 923) (UniProt Q6PKC3)” was run?
**A.** 0.0318

**Q.** For “ZCCHC8 (peptide sequence: LFPADTSPSTATK, peptide start residue: 643) (UniProt Q6NZY4)”, which log2 fold change is on record?
**A.** -0.112

**Q.** With “PHLDB3 (peptide sequence: GNSCGAIHPDIAHMER, peptide start residue: 445) (UniProt Q6NSJ2)” as the target, how does the log2 fold change read?
**A.** 1.41

**Q.** For “UniProt Q6UX04 (peptide sequence: SEEEEAPPDGAVAEYR, peptide start residue: 346)”, which log2 fold change is on record?
**A.** -0.365

**Q.** With “UniProt Q6PDB4 (peptide sequence: CLDPAQR, peptide start residue: 24)” as the target, how does the log2 fold change read?
**A.** 0.00976

**Q.** “UniProt Q6EKJ0 (peptide sequence: EQVNDLFSR, peptide start residue: 870)” was tested. Which log2 fold change did it give?
**A.** -0.135

**Q.** How did the log2 fold change turn out when “UniProt Q6PJW8 (peptide sequence: TVQPHTVTALR, peptide start residue: 240)” was run?
**A.** 0.436

**Q.** Which log2 fold change does the source give for “ATG16L1 (peptide sequence: HQEELTELHKK, peptide start residue: 92) (UniProt Q676U5)” here?
**A.** -0.468

**Q.** For “WDR73 (peptide sequence: SQVEPLFTHR, peptide start residue: 319) (UniProt Q6P4I2)”, which log2 fold change is on record?
**A.** 0.362

**Q.** With “UniProt Q68CZ6 (peptide sequence: EVTQIKDR, peptide start residue: 327)” as the target, how does the log2 fold change read?
**A.** 0.52

**Q.** Which log2 fold change does the source give for “KLC3 (peptide sequence: EATDLLHDALQIR, peptide start residue: 267) (UniProt Q6P597)” here?
**A.** -0.481

**Q.** With “UniProt Q68CL5 (peptide sequence: GPSGPSGPSTSSTSK, peptide start residue: 275)” as the target, how does the log2 fold change read?
**A.** 0.136

**Q.** Which log2 fold change does the source give for “AFTPH (peptide sequence: GQSDVLLSTTSK, peptide start residue: 102) (UniProt Q6ULP2)” here?
**A.** 0.249

**Q.** Which log2 fold change does the source give for “SCYL2 (peptide sequence: LYDVETK, peptide start residue: 149) (UniProt Q6P3W7)” here?
**A.** -0.143

**Q.** Which log2 fold change does the source give for “CRTC3 (peptide sequence: SNPSIQATLNK, peptide start residue: 329) (UniProt Q6UUV7)” here?
**A.** 0.141

**Q.** Which log2 fold change does the source give for “ANKRD11 (peptide sequence: ESACLPEKLK, peptide start residue: 1336) (UniProt Q6UB99)” here?
**A.** 1.16

**Q.** “ZSCAN25 (peptide sequence: NANLAVHR, peptide start residue: 470) (UniProt Q6NSZ9)” was tested. Which log2 fold change did it give?
**A.** 0.594

**Q.** Which log2 fold change does the source give for “THOC7 (peptide sequence: ELEHLSHIK, peptide start residue: 145) (UniProt Q6I9Y2)” here?
**A.** -0.754

**Q.** For “RPUSD3 (peptide sequence: RLHLTPSQAAQLPLHLHLHR, peptide start residue: 297) (UniProt Q6P087)”, which log2 fold change is on record?
**A.** -0.586

**Q.** For “CEP135 (peptide sequence: MTSQDEEAHVMK, peptide start residue: 715) (UniProt Q66GS9)”, which log2 fold change is on record?
**A.** -0.601

**Q.** “UniProt Q6NUM6 (peptide sequence: AMITPALR, peptide start residue: 354)” was tested. Which log2 fold change did it give?
**A.** -0.149

**Q.** Which log2 fold change does the source give for “UniProt Q6DT37 (peptide sequence: LQEAQER, peptide start residue: 526)” here?
**A.** -0.212
